# Laboratory results from PubChem BioAssay AID504834 (National Center for Advancing Translational Sciences (NCATS), 2011).
# The campaign covered roughly 320,000 compounds. About 22,000 (6.9%) were called active. Inconclusive means that the source gave no clear call. Such entries were picked first, then a sample of the others. Calls follow the shape of the dose curve; as a rule, active = well fitted inhibition curve with a large enough effect; inconclusive = small, poorly fitted or top-dose-only effect, or another doubt; inactive = no such curve, though single readings can be large or run the other way. Where the call is inconclusive, the potency comes from a doubtful curve fit.
# Assay: Primary qHTS for delayed death inhibitors of the malarial parasite plastid, 96 hour incubation
# Conditions: P. falciparum luciferase reporter growth; series mostly up to 28.7 µM; activity change, negative = inhibition: at the top concentration
# Outline: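 Luminescence readout: decreased luciferase signal marks inhibited growth of reporter-expressing P. falciparum in infected red cells (2% hematocrit, 0.05% parasitemia final), exposed to compound two generations (96 h, 37 C, 5% CO2).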
# % is scaled to controls: 0 for no effect and ±100 for the full control effect; potency is read from the fitted curve at half-maximal effect.
Structure (SMILES),"activity change, negative = inhibition",Potency
CSc1sc(C(=O)NNC(=O)c2ccc(Cl)cc2)c2c1C=CCC2,inactive: -3.23%,
COc1ccc(C(C(=O)NC(C)(C)C)N(CCc2ccc(OC)c(OC)c2)C(=O)CCC(=O)Nc2cc(C)on2)cc1 (centres undefined),,"inconclusive: 4.15 µM [inhibitor, partial curve]"
COc1ccc(C(C)(C)C)cc1NC(=O)CSc1ncn[nH]1,,"inconclusive: 2.08 µM [inhibitor, full curve]"
CCc1ccc(OC(=O)/C=C/c2ccco2)cc1,,"inconclusive: 18.5 µM [inhibitor, single point]"
COc1ccc(/C(C)=N/NC(=O)CNC(=O)/C=C\c2ccccc2OC)c(OC)c1,inactive: -13.2%,
COc1ccc(-c2onc3ccc(C(=O)/C=C/N(C)C)cc23)cc1,,"inconclusive: 18.5 µM [inhibitor, single point]"
Cc1ccc(O)c(NC(=S)NC(=O)c2ccccc2Cl)c1,inactive: 3.91%,
Cc1ccc(-c2nc3ncccn3c2Nc2ccc3c(c2)OCO3)o1,,"inconclusive: 16.5 µM [inhibitor, single point]"
CCc1noc(C)c1C(=O)Nc1ccc(S(=O)(=O)N2CCC(C)CC2)cc1,,"inconclusive: 9.28 µM [inhibitor, single point]"
CN(C)S(=O)(=O)c1ccc(N2CCCC2)c(C(=O)NNC(=O)COc2ccccc2F)c1,,"inconclusive: 2.94 µM [inhibitor, full curve]"
Cc1cc(C=O)c(C)n1-c1cc(C(F)(F)F)ccc1N1CCOCC1,,"inconclusive: 0.329 µM [inhibitor, partial curve, poor fit]"
O=C1CC(N2CCCN(C3CC(=O)N(c4ccc(F)cc4)C3=O)CC2)C(=O)N1c1ccc(F)cc1 (centres undefined),inactive: -2.18%,
CC1Oc2ccccc2N(CC(=O)NCCN2CCOCC2)C1=O (centres undefined),inactive: 8.37%,
CCN1CCN(CCC(=O)Nc2ccc3c(c2)OCO3)CC1,,"inconclusive: 11.7 µM [inhibitor, single point]"
COc1cc(C(=O)NCCSc2ccc(Cl)cc2)cc(OC)c1OC,,"inconclusive: 11.7 µM [inhibitor, single point]"
CCOC(=O)c1c(C)[nH]c(C(=O)N/N=C\c2ccccc2O)c1C,,"inconclusive: 2.33 µM [inhibitor, full curve, poor fit]"
CC(C)(C)c1ccc(/C=C/C(=O)NC2CCS(=O)(=O)C2)cc1 (centres undefined),,"inconclusive: 10.4 µM [inhibitor, single point]"
O=C(NCCc1ccc(F)cc1)c1cc(-c2ccncc2)nc2ccccc12,,"inconclusive: 18.5 µM [inhibitor, single point]"
CC(NCc1ccncc1)C12CC3CC(CC(C3)C1)C2 (centres undefined),inactive: -21.7%,

# Quoted at random: 2 records from the list, in no set order.
Structure (SMILES),"activity change, negative = inhibition",Potency
CCc1ccc(OC(=O)/C=C/c2ccco2)cc1,,"inconclusive: 18.5 µM [inhibitor, single point]"
COc1cc(C(=O)NCCSc2ccc(Cl)cc2)cc(OC)c1OC,,"inconclusive: 11.7 µM [inhibitor, single point]"
